We go through 33 molecules from patent US20250127898A1, “PHOTODYNAMIC THERAPY AND DIAGNOSIS” (RMW CHO Group Limited, priority 2021, published 2025).

Structures can show the parent of a compound that is named as a salt. Where a SMILES comes first, the peptide text is derived from it. The star is where a group is joined. X1 = CCC1=C(C)c2cc3[nH]c(cc4nc(c(C)c5cc(C)c(cc1n2)[nH]5)[C@@H](CCC(=O)*)[C@@H]4C)c(C)c3CC

This data set deals with Human ovarian cancer cell line SKOV3. As to the kind of experiment: Therapeutic index calculated using phototoxicity IC90 vs dark toxicity IC10. In kind it is cell-based. Conditions: phototoxicity IC90 vs dark toxicity IC10, SKOV3 cells (IC90 by LED for * compounds).
In the case of `C=Cc1c(C)c2cc3nc(c(C)c4[nH]c(cc5nc(cc1[nH]2)C(C)=C5CC)c(C)c4C(=O)O)[C@@H](CCC(=O)O)[C@@H]3C` [Chlorin e4 disodium, chlorin e4 disodium, reference compound], the “Therapeutic Index” value is given as 1.89.

Consider `CCC1=C(C)c2cc3[nH]c(cc4nc(c(C)c5cc(C)c(cc1n2)[nH]5)[C@@H](CCC(=O)[O-])[C@@H]4C)c(C)c3CC.[Na+]` [Compound 2, Reduced Phyllochlorin Sodium Salt], for which the “Therapeutic Index” value is recorded as 673.80.

As for `CCC1=C(C)c2cc3[nH]c(cc4nc(c(C)c5cc(C)c(cc1n2)[nH]5)[C@@H](CCC(=O)N[C@H]1C(O)O[C@H](CO)[C@@H](O)[C@@H]1O)[C@@H]4C)c(C)c3CC` (stereo partly drawn) [Compound 3, Reduced Phyllochlorin 2-deoxyglucosamine-propylamide], the “Therapeutic Index” value is reported as 310.00.

`CCC1=C(C)c2cc3[nH]c(cc4nc(c(C)c5cc(C)c(cc1n2)[nH]5)[C@@H](CCC(=O)N(C)CCCS[C@@H]1O[C@H](CO)[C@@H](O)[C@H](O)[C@H]1O)[C@@H]4C)c(C)c3CC` [Compound 4, Reduced Phyllochlorin β-D-1-thioglucose-N-methylpropylamide]: the “Therapeutic Index” value is given as 40.88.

As for `CCC1=C(C)c2cc3[nH]c(cc4nc(c(C)c5cc(C)c(cc1n2)[nH]5)[C@@H](CCC(=O)N(C)CCOCCO[C@@H]1O[C@H](CO)[C@@H](O)[C@H](O)[C@H]1O)[C@@H]4C)c(C)c3CC` [Compound 5, Reduced Phyllochlorin β-D-1-glucose-N-methyl-2-ethoxy-N-ethanamine], the “Therapeutic Index” value is 180.78.

On to `CCC1=C(C)c2cc3[nH]c(cc4nc(c(C)c5cc(C)c(cc1n2)[nH]5)[C@@H](CCC(=O)N(C)CCCO[C@@H]1O[C@H](CO)[C@@H](O)[C@H](O)[C@H]1O)[C@@H]4C)c(C)c3CC` [Compound 9, Reduced Phyllochlorin β-D-glucosyl-N-methylpropylamide], for which the “Therapeutic Index” value is on record as 130.41.

On to `CCC1=C(C)c2cc3[nH]c(cc4nc(c(C)c5cc(C)c(cc1n2)[nH]5)[C@@H](CCC(=O)N(C)CCCOCCC[P+](c1ccccc1)(c1ccccc1)c1ccccc1)[C@@H]4C)c(C)c3CC` [Compound 11], for which the “Therapeutic Index” value is given as 1,449.00.

Turning to `CCC1=C(C)c2cc3[nH]c(cc4nc(c(C)c5cc(C)c(cc1n2)[nH]5)[C@@H](CCC(=O)N(C)CCOCCOCCO)[C@@H]4C)c(C)c3CC` [Compound 12, Reduced Phyllochlorin N-(2-(2-(2-hydroxyethoxy)ethoxy)ethyl)-N-methyl-3-amide], the “Therapeutic Index” value is reported as 76.60.

With `CCC1=C(C)c2cc3[nH]c(cc4nc(c(C)c5cc(C)c(cc1n2)[nH]5)[C@@H](CCC(=O)N(C)CCOCCOCC[n+]1ccccc1)[C@@H]4C)c(C)c3CC` [Compound 13, Reduced Phyllochlorin N-(2-(2-(2-pyridiniumethoxy)ethoxy)ethyl)-N-methyl-3-amide chloride], the “Therapeutic Index” value is recorded as 210.00.

For `CCC1=C(C)c2cc3[nH]c(cc4nc(c(C)c5cc(C)c(cc1n2)[nH]5)[C@@H](CCC(=O)N(C)CCOCCOCCOCCOCCOCCOC)[C@@H]4C)c(C)c3CC` [Compound 14, Reduced Phyllochlorin N-methyl-N-3,6,9,12,15,18-hexaoxanonadecyl propylamide], the “Therapeutic Index” value is 24.47.

As for `CCC1=C(C)c2cc3[nH]c(cc4nc(c(C)c5cc(C)c(cc1n2)[nH]5)[C@@H](CCC(=O)N[C@@H]1C(O)O[C@H](CO)[C@@H](O)[C@@H]1O)[C@@H]4C)c(C)c3CC` (stereo partly drawn) [Compound 15, Reduced Phyllochlorin 2-deoxy-D-mannosamine-propylamide], the “Therapeutic Index” value is 77.14.

For `CCC1=C(C)c2cc3[nH]c(cc4nc(c(C)c5cc(C)c(cc1n2)[nH]5)[C@@H](CCC(=O)N(C)CCOCCOCC[P+](c1ccccc1)(c1ccccc1)c1ccccc1)[C@@H]4C)c(C)c3CC` [Compound 16, Reduced Phyllochlorin N-(2-(2-(2-triphenylphosphoniumethoxy)ethoxy)ethyl)-N-methyl-3-amide chloride], the “Therapeutic Index” value is given as 291.36.

`CCC1=C(C)c2cc3[nH]c(cc4nc(c(C)c5cc(C)c(cc1n2)[nH]5)[C@@H](CCC(=O)N(C)CCC[S+]([O-])[C@@H]1O[C@H](CO)[C@@H](O)[C@H](O)[C@H]1O)[C@@H]4C)c(C)c3CC` (stereo partly drawn) [Compound 17, Reduced Phyllochlorin β-D-1-thioglucose-N-methylpropylamide sulfoxide]: the “Therapeutic Index” value is listed as 27.31.

Turning to `CCC1=C(C)c2cc3[nH]c(cc4nc(c(C)c5cc(C)c(cc1n2)[nH]5)[C@@H](CCCN)[C@@H]4C)c(C)c3CC` [Compound 18, Reduced Phyllochlorin 3-aminopropyl], the “Therapeutic Index” value is 394.60.

Consider `CCC1=C(C)c2cc3[nH]c(cc4nc(c(C)c5cc(C)c(cc1n2)[nH]5)[C@@H](CCC(=O)N(C)CCO)[C@@H]4C)c(C)c3CC` [Compound 19, Reduced Phyllochlorin N-2-hydroxyethyl-N-methyl propylamide], for which the “Therapeutic Index” value was 261.31.

With `CCC1=C(C)c2cc3[nH]c(cc4nc(c(C)c5cc(C)c(cc1n2)[nH]5)[C@@H](CCCO)[C@@H]4C)c(C)c3CC` [Compound 20, Reduced Phyllochlorin 3-hydroxypropyl], the “Therapeutic Index” value was 92.46.

For `CCC1=C(C)c2cc3[nH]c(cc4nc(c(C)c5cc(C)c(cc1n2)[nH]5)[C@@H](CCC(=O)N(C)CCCCCCCCCC[P+](c1ccccc1)(c1ccccc1)c1ccccc1)[C@@H]4C)c(C)c3CC` [Compound 21, Reduced Phyllochlorin ((methylamino)-10-decyl)triphenylphosphonium Chloride Propylamide], the “Therapeutic Index” value is given as 66.59.

As to `CCC1=C(C)c2cc3[nH]c(cc4nc(c(C)c5cc(C)c(cc1n2)[nH]5)[C@@H](CCC(=O)N(C)CCCO)[C@@H]4C)c(C)c3CC` [Compound 22, Reduced Phyllochlorin N-3-hydroxypropyl-N-methyl Propylamide], the “Therapeutic Index” value is 103.52.

With `CCC1=C(C)c2cc3[nH]c(cc4nc(c(C)c5cc(C)c(cc1n2)[nH]5)[C@@H](CCC(=O)N(C)CCCCCO)[C@@H]4C)c(C)c3CC` [Compound 23, Reduced Phyllochlorin N-5-hydroxypentyl-N-methyl Propylamide], the “Therapeutic Index” value is given as 70.94.

Turning to `CCC1=C(C)c2cc3[nH]c(cc4nc(c(C)c5cc(C)c(cc1n2)[nH]5)[C@@H](CCC(=O)N[C@H]1C(O)O[C@H](CO)[C@H](O)[C@@H]1O)[C@@H]4C)c(C)c3CC` (stereo partly drawn) [Compound 24, Reduced Phyllochlorin 2-deoxy-D-galactosamine-propylamide], the “Therapeutic Index” value is given as 143.08.

Regarding `CCC1=C(C)c2cc3[nH]c(cc4nc(c(C)c5cc(C)c(cc1n2)[nH]5)[C@@H](CCC(=O)N[C@@H](CCCCN)C(=O)N[C@@H](CCCCN)C(=O)N[C@@H](CCCCN)C(=O)N[C@@H](CCCCN)C(=O)N[C@@H](CCCCN)C(=O)N(C)C)[C@@H]4C)c(C)c3CC` [Compound 26, Reduced Phyllochlorin lysyl-lysyl-lysyl-lysyl-lysyl Dimethylamide Propylamide Pentahydrochloride] (X1-KKKKK-NMe2), the “Therapeutic Index” value is 29.70.

As for `CCC1=C(C)c2cc3[nH]c(cc4nc(c(C)c5cc(C)c(cc1n2)[nH]5)[C@@H](CCC[P+](c1ccccc1)(c1ccccc1)c1ccccc1)[C@@H]4C)c(C)c3CC` [Compound 27, Reduced Phyllochlorin 3-triphenylphosphonium Propyl Iodide], the “Therapeutic Index” value is recorded as 241.09.

Take `CCC1=C(C)c2cc3[nH]c(cc4nc(c(C)c5cc(C)c(cc1n2)[nH]5)[C@@H](CCC(=O)N[C@@H](CCCCN)C(=O)N(C)C)[C@@H]4C)c(C)c3CC` [Compound 31, Reduced Phyllochlorin N-Lysyl Dimethylamide Propylamide Hydrochloride]: the “Therapeutic Index” value was 804.55.

Take `CCC1=C(C)c2cc3[nH]c(cc4nc(c(C)c5[nH]c(cc1n2)c(C)c5C(=O)O)[C@@H](CCC(=O)O)[C@@H]4C)c(C)c3CC` [Compound 36, Reduced Chlorin e4]: the “Therapeutic Index” value was 2.80.

`CCC1=C(C)c2cc3[nH]c(cc4nc(c5c6[nH]c(cc1n2)c(C)c6C(=O)OC5)[C@@H](CCC(=O)O)[C@@H]4C)c(C)c3CC` [Compound 39, Reduced Chlorin K]: the “Therapeutic Index” value is 46.80.

As to `CCC1=C(C)c2cc3[nH]c(cc4nc(c5c6[nH]c(cc1n2)c(C)c6C(=O)OC5)[C@@H](CCC(=O)N(C)CCCS[C@@H]1O[C@H](CO)[C@@H](O)[C@H](O)[C@H]1O)[C@@H]4C)c(C)c3CC` [Compound 40, Reduced Chlorin K β-D-1-thioglucose-N-methylpropylamide], the “Therapeutic Index” value was 14.09.

For the molecule `C=Cc1c(C)c2cc3nc(c(CC(=O)N[C@@H](CC(=O)O)C(=O)O)c4[nH]c(cc5nc(cc1[nH]2)C(C)=C5CC)c(C)c4C(=O)O)[C@@H](CCC(=O)O)[C@@H]3C` [Talaporfin sodium, reference compound], the “Therapeutic Index” value is 0.49.

For “Phyllochlorin free acid [reference compound]”, the “Therapeutic Index” value is reported as 31.40.

For the molecule “Phyllochlorin sodium salt [reference compound]”, the “Therapeutic Index” value was 62.74.

In the case of “Reduced Phyllochlorin Methyl Ester [Compound 6]”, the “Therapeutic Index” value was 31.40.

On to “Reduced Phyllochlorin N-(2-(2-(2-picolinylethoxy)ethoxy)ethyl)-N-methyl-3-amide chloride [Compound 28]”, for which the “Therapeutic Index” value is 46.32.

As for “Reduced Phyllochlorin N-(2-(2-hydroxyethoxy)ethyl)-N-methylpropylamide [Compound 7]”, the “Therapeutic Index” value was 725.00.

On to Reduced Phyllochlorin [Compound 1], for which the “Therapeutic Index” value is reported as 59.38.
